The record followed here is patent US20040072746A1, “Inhibitors of monocarboxylate transport” (priority 2001, published 2004).

By UniProt entry, the sequences of proteins in these tests, tags left out. Where a name states a change or a piece, a line headed by the entry shows the natural chain unless it says otherwise.
UniProt P22629: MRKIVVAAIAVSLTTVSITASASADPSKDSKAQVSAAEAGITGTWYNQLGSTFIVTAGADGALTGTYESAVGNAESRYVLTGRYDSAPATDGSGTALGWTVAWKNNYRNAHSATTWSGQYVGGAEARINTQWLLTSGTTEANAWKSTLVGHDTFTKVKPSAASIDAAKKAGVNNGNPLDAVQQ

These are yes or no findings as the source states them, for the method shown. Some results given as binding are weak or reduced against the parent protein; the word gives no strength. Where a sequence is shown, tags or fusion partners need not be part of it.

This assay concerns the target T1, human MCT1 with a Strep Tag at the C-terminus (human) (UniProt P53985).
T1 sequence: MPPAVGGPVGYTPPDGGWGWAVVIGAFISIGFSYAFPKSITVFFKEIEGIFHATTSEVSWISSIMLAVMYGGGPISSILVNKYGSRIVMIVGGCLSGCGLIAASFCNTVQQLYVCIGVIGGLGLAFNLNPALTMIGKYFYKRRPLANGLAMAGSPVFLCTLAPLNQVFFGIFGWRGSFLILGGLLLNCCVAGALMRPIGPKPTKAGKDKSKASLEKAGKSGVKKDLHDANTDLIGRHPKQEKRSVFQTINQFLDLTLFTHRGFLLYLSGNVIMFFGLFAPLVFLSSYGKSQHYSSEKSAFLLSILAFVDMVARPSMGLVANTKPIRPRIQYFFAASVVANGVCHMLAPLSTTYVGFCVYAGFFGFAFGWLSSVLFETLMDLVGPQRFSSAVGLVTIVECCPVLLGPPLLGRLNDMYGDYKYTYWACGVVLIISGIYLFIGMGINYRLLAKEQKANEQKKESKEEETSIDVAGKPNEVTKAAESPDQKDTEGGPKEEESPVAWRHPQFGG
Briefly: Western blot of yeast expressing strep tagged MCT1.

For “streptavidin-horseradish peroxidase conjugate (IBA GmbH) (from UniProt P22629 37-163; P00433 31-338)”, the binding result is recorded as “binds”.
